PubChem BioAssay AID1259308 | NCATS, 2017
The deposit covers about 59,000 reagents; this is an unselected part. In the full data, about 1,510 (2.6%) got an active call. 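Calls use total luciferase alone and ignore viability, so some active siRNAs may act by altering cell number.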 Unmarked entries are inactive. Not all columns of the deposit are shown.

Purpose: 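Genes whose loss raises luciferase production in HEK293 cells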 (primary screen)
Cells: human HEK293 embryonic kidney cells stably expressing firefly luciferase (HEK-CMV-Luc2-Hygro)
Reagents: single siRNA against human genes, 0.8 pmol siRNA per well
Timing: 72 h
Detection: 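Luciferase light (ONE-Glo) measured on one replicate plate set and viability (CellTiter-Glo) on the other, scaled to a negative control siRNA, with robust z-scores and luciferase per cell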
Reading the numbers: total luciferase, z-score and total luciferase, % of control: higher = more reporter protein produced
Hit rule: 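Active when the median/MAD z-score for overall luciferase is greater than 3; a gene was taken forward for validation with new siRNAs if at least two of its three siRNAs passed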
Meaning of the calls: active = raised luciferase; inactive = no rise

ARL5B [SID160761596] | total luciferase, z-score = -0.876; total luciferase, % of control = 64.5
ARL5B [SID160761598] | total luciferase, z-score = 3.09 (active); total luciferase, % of control = 143
ARL5B [SID160761599] | total luciferase, z-score = -0.365; total luciferase, % of control = 74.6
OSMR [SID160721658] | total luciferase, z-score = 1.2; total luciferase, % of control = 106
OSMR [SID160721659] | total luciferase, z-score = -0.338; total luciferase, % of control = 75.2
OSMR [SID160721660] | total luciferase, z-score = -0.755; total luciferase, % of control = 66.9
SPANXN2 [SID160733467] | total luciferase, z-score = -0.66; total luciferase, % of control = 68.8
SPANXN2 [SID160768267] | total luciferase, z-score = 0.0649; total luciferase, % of control = 83.2
SPANXN2 [SID160768268] | total luciferase, z-score = 1.48; total luciferase, % of control = 111
CCDC6 [SID160719571] | total luciferase, z-score = 0.804; total luciferase, % of control = 97.9
CCDC6 [SID160719572] | total luciferase, z-score = 0.114; total luciferase, % of control = 84.2
CCDC6 [SID160719573] | total luciferase, z-score = 1.14; total luciferase, % of control = 104
SLC25A4 [SID160717623] | total luciferase, z-score = -1.1; total luciferase, % of control = 60.1
SLC25A4 [SID160717644] | total luciferase, z-score = 0.155; total luciferase, % of control = 85
SLC25A4 [SID160731033] | total luciferase, z-score = -0.174; total luciferase, % of control = 78.4
UNC45B [SID160758442] | total luciferase, z-score = -0.641; total luciferase, % of control = 69.1
UNC45B [SID160758443] | total luciferase, z-score = 0.194; total luciferase, % of control = 85.7
UNC45B [SID160758444] | total luciferase, z-score = 2.29; total luciferase, % of control = 128

Records listed so far whose gene name begins with U or u (3):
UNC45B [SID160758442] | total luciferase, z-score = -0.641; total luciferase, % of control = 69.1
UNC45B [SID160758443] | total luciferase, z-score = 0.194; total luciferase, % of control = 85.7
UNC45B [SID160758444] | total luciferase, z-score = 2.29; total luciferase, % of control = 128

More records follow.
WARS1P1 [SID160733097] | total luciferase, z-score = 3.46 (active); total luciferase, % of control = 151
WARS1P1 [SID160764517] | total luciferase, z-score = 0.859; total luciferase, % of control = 99
WARS1P1 [SID160764518] | total luciferase, z-score = 1.34; total luciferase, % of control = 109
OR5AN1 [SID160766437] | total luciferase, z-score = -0.0819; total luciferase, % of control = 80.3
OR5AN1 [SID160766439] | total luciferase, z-score = -0.453; total luciferase, % of control = 72.9
OR5AN1 [SID160766440] | total luciferase, z-score = -2.55; total luciferase, % of control = 31.1
SUPT6H [SID160717545] | total luciferase, z-score = 1.53; total luciferase, % of control = 112
SUPT6H [SID160717546] | total luciferase, z-score = 1.89; total luciferase, % of control = 119
SUPT6H [SID160717547] | total luciferase, z-score = 1.41; total luciferase, % of control = 110
PYGB [SID160715499] | total luciferase, z-score = 0.713; total luciferase, % of control = 96.1
PYGB [SID160715501] | total luciferase, z-score = -0.00832; total luciferase, % of control = 81.7
PYGB [SID160715502] | total luciferase, z-score = 0.475; total luciferase, % of control = 91.3
VNN1 [SID160721030] | total luciferase, z-score = 0.574; total luciferase, % of control = 93.3
VNN1 [SID160721031] | total luciferase, z-score = 0.405; total luciferase, % of control = 89.9
VNN1 [SID160721032] | total luciferase, z-score = 0.556; total luciferase, % of control = 92.9
